# Data taken from the supplement of paper PMC4604168 (melanoma cell lines).
# Some of the results follow. Repeats are few or missing, and single values can be far off.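 Cells were imaged in 1,536-well plates, and nuclei stained with an antibody against cleaved PARP were counted against all DNA-stained nuclei to give the apoptosis fraction. Screening doses were chosen to leave most cells alive, and resting and induced cleaved-PARP levels differ strongly between cell lines.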
# System: CBRC008 (line from a melanoma biopsy)
# Assay: cleaved PARP positive nuclei fraction relative to DMSO control; melanoma cells; higher = more apoptosis
# Details: library dose: low library concentration; 72 h
row,Structure (SMILES),cleaved PARP positive nuclei fraction [%]
1,"Cc1cn(-c2cc(NC(=O)c3ccc(C)c(Nc4nccc(-c5cccnc5)n4)c3)cc(C(F)(F)F)c2)cn1 [nilotinib] + COc1cc(N2CCC(N3CCN(C)CC3)CC2)ccc1Nc1ncc(Cl)c(Nc2ccccc2S(=O)(=O)C(C)C)n1 [NVP-TAE684] (first compound 0.2 µM, partner dose 0.08 µM)",97.4
2,"Cc1ccc(Nc2nccc(N(C)c3ccc4c(C)n(C)nc4c3)n2)cc1S(N)(=O)=O [Pazopanib] + O=C(Nc1ccccc1)c1cc([N+](=O)[O-])ccc1Cl [GW9662] (first compound 0.4 µM, partner dose 2 µM)",69
3,"O=C(Nc1cc(C(F)(F)F)cc(C(F)(F)F)c1)c1cc(Cl)ccc1O + O=C(O)C(=O)Nc1sc2c(c1C(=O)O)CCNC2 [TCS401] (first compound 0.016 µM, partner dose 1.66667 µM)",40.2

# System: CBRC014 (line from a melanoma biopsy)
# Assay: as above
# Details: library dose: low library concentration; 72 h
row,Structure (SMILES),cleaved PARP positive nuclei fraction [%]
1,"Cc1cc(Nc2cc(N3CCN(C)CC3)nc(Sc3ccc(NC(=O)C4CC4)cc3)n2)n[nH]1 [Tozasertib] + N#Cc1c(O)c2c(-c3ccc(-c4ccccc4O)cc3)csc2[nH]c1=O [A769662] (first compound 0.006 µM, partner dose 2 µM)",81.8
2,"O=C(Nc1cc(C(F)(F)F)cc(C(F)(F)F)c1)c1cc(Cl)ccc1O + COc1ccc(COc2ccc(Cc3cnc(N)nc3N)cc2OC)cc1 [GW2580] (first compound 0.016 µM, partner dose 1 µM)",112
3,"O=C(/C=C/c1cccnc1)NCCCCC1CCN(C(=O)c2ccccc2)CC1 + COc1cc(N2CCC(N3CCN(C)CC3)CC2)ccc1Nc1ncc(Cl)c(Nc2ccccc2S(=O)(=O)C(C)C)n1 [NVP-TAE684] (first compound 0.01 µM, partner dose 0.08 µM)",110
4,"N#CC[C@H](C1CCCC1)n1cc(-c2ncnc3[nH]ccc23)cn1 [ruxolitinib] + Cn1cc(/C=C2\C(=O)Nc3cccnc32)c2ccccc21 [GW441756] (first compound 1 µM, partner dose 0.4 µM)",94.2
5,"CCCCCCCCCCCCCCCCCCOP(=O)([O-])OC1CC[N+](C)(C)CC1 [Perifosine] + Oc1nc(-c2ccc(C(F)(F)F)cc2)nc2c1CSCC2 [XAV939] (first compound 0.4 µM, partner dose 2 µM)",93.5
6,"O=C(/C=C/c1cccnc1)NCCCCC1CCN(C(=O)c2ccccc2)CC1 + Oc1nc(-c2ccc(C(F)(F)F)cc2)nc2c1CSCC2 [XAV939] (first compound 0.01 µM, partner dose 2 µM)",101
7,"Cc1ccc(Nc2nccc(N(C)c3ccc4c(C)n(C)nc4c3)n2)cc1S(N)(=O)=O [Pazopanib] + N#Cc1c(O)c2c(-c3ccc(-c4ccccc4O)cc3)csc2[nH]c1=O [A769662] (first compound 0.4 µM, partner dose 2 µM)",98.5
8,"N#CC[C@H](C1CCCC1)n1cc(-c2ncnc3[nH]ccc23)cn1 [ruxolitinib] + COc1cc2ncnc(Nc3ccc(Oc4ccccc4)cc3)c2cc1OC [SrcI1] (first compound 1 µM, partner dose 2 µM)",95.8
9,"O=C(Nc1cc(C(F)(F)F)cc(C(F)(F)F)c1)c1cc(Cl)ccc1O + CCN(CC)CCCCNc1ncc2cc(-c3cc(OC)cc(OC)c3)c(NC(=O)NC(C)(C)C)nc2n1 [PD173074] (first compound 0.016 µM, partner dose 0.1 µM)",76.1
10,"CCCCCCCCCCCCCCCCCCOP(=O)([O-])OC1CC[N+](C)(C)CC1 [Perifosine] + COc1ccc2c(c1)CCC1C2CCC2(C)C(NCCCCCCN3C(=O)C=CC3=O)CCC12 [U73122] (first compound 0.4 µM, partner dose 0.4 µM)",112
11,"O=c1[nH]nc(Sc2ncc([N+](=O)[O-])s2)n1-c1ccc2c(c1)OCCO2 + N#Cc1c(O)c2c(-c3ccc(-c4ccccc4O)cc3)csc2[nH]c1=O [A769662] (first compound 0.2 µM, partner dose 2 µM)",101
12,"O=c1[nH]nc(Sc2ncc([N+](=O)[O-])s2)n1-c1ccc2c(c1)OCCO2 + COc1ccc2c(c1)CCC1C2CCC2(C)C(NCCCCCCN3C(=O)C=CC3=O)CCC12 [U73122] (first compound 0.2 µM, partner dose 0.4 µM)",88

# Two entries drawn at random from those above:
row,Structure (SMILES),cleaved PARP positive nuclei fraction [%]
2,"O=C(Nc1cc(C(F)(F)F)cc(C(F)(F)F)c1)c1cc(Cl)ccc1O + COc1ccc(COc2ccc(Cc3cnc(N)nc3N)cc2OC)cc1 [GW2580] (first compound 0.016 µM, partner dose 1 µM)",112
8,"N#CC[C@H](C1CCCC1)n1cc(-c2ncnc3[nH]ccc23)cn1 [ruxolitinib] + COc1cc2ncnc(Nc3ccc(Oc4ccccc4)cc3)c2cc1OC [SrcI1] (first compound 1 µM, partner dose 2 µM)",95.8
